Data reported in ChEMBL document CHEMBL1165867, “Synthesis, structure and structure-activity relationship analysis of caffeic acid amides as potential antimicrobials” (2010).

Legend:
Experiment in all cases: microbe, parasite or virus in culture
Assay type in all cases: functional
Candida albicans = details: ATCC 10231, 48 h
Pseudomonas fluorescens = details: ATCC 13525, 24 h
Bacillus subtilis = details: ATCC 6633, 24 h
Staphylococcus aureus = details: ATCC 6538, 24 h

Measured: MIC

O=C(/C=C/c1ccc(O)cc1)Nc1ccccc1 [4-HYDROXY-CINNAMANILIDE]
> 50 µg/mL: all assays above
